This is an account of results in patent US11446308B2, “Methods and compositions for the prevention and treatment of hearing loss” (St. Jude Children's Research Hospital, priority 2015, dated 2022).

The data set has as its system hair cells in mouse cochlear explants. The following applies: explant.

Turning to `CC[C@H](CO)Nc1nc(NCc2ccccc2O)c2ncn(C(C)C)c2n1` [Compound 9, Olomoucine II], the “Therapeutic Index LD50/IC50” value is 11.
For `NS(=O)(=O)c1ccc(N/N=C2\C(=O)Nc3cc(Br)ccc32)cc1` [Compound 12, CDK2 inhibitor II] the value was 12.
